The assay deals with protein arginine methyltransferase 5 (PRMT5), endogenous in human EnSC (human (endogenous in human EnSC)) (UniProt O14744). In words: affinity purification with mass spectrometry.

The chains behind the UniProt entries cited, without tags or fusion partners.
UniProt O14744: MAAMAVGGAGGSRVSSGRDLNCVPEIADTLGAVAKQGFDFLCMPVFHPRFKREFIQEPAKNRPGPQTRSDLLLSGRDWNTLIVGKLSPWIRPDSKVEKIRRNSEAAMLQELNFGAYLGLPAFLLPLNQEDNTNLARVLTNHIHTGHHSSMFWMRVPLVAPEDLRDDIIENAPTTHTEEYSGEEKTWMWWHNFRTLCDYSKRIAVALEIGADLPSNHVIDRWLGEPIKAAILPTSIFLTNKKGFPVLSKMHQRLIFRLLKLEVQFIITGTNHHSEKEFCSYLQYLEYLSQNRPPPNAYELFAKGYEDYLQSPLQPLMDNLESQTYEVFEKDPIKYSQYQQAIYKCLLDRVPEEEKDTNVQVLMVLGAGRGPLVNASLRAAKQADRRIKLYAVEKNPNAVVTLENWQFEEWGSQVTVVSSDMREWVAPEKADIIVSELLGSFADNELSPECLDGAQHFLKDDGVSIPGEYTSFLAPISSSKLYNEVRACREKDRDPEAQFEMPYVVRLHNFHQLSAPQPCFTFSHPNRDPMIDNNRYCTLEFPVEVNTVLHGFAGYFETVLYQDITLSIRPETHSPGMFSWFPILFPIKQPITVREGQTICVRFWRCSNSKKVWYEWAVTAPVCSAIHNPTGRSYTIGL
UniProt Q92570: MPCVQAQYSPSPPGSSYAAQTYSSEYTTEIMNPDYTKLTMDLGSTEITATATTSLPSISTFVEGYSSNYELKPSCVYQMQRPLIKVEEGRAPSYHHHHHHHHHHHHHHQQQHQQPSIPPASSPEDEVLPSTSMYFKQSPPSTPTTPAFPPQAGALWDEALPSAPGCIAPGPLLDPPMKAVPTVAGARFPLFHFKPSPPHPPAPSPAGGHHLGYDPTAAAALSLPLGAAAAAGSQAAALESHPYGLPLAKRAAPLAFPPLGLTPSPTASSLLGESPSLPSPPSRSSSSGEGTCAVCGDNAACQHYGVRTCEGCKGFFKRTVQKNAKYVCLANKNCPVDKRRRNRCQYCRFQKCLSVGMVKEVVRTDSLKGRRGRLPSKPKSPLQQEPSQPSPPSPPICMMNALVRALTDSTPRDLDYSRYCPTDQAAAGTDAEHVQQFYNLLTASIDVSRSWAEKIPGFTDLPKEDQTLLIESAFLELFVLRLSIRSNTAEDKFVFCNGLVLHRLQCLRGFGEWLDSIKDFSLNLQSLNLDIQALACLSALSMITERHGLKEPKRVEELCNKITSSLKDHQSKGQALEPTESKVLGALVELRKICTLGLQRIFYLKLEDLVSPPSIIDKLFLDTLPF

These are yes or no findings as the source states them, for the method shown. In cells and extracts the contact can be indirect. Here binding means that the protein was enriched with, or labelled near, the bait; the list need not be complete.

On to “NR4A3, endogenous in human EnSC (from UniProt Q92570 1-626)”, for which the binding entry is “binds”.

B1: FAM120A, endogenous in human EnSC (protein, UniProt Q9NZB2 1-1118)
chain: MGVQGFQDYIEKHCPSAVVPVELQKLARGSLVGGGRQRPPQTPLRLLVDADNCLHRLYGGFYTDWVSGGQWNHMLGYLAALAKACFGGNIELFVFFNGALEKARLHEWVKRQGNERQTAQQIVSHVQNKGTPPPKVWFLPPVCMAHCIRLALIRFHVKVAQSIEDHHQEVIGFCRENGFHGLVAYDSDYALCNIPYYFSAHALKLSRNGKSLTTSQYLMHEVAKQLDLNPNRFPIFAALLGNHILPDEDLASFHWSLLGPEHPLASLKVRAHQLVLPPCDVVIKAVADYVRNIQDTSDLDAIAKDVFQHSQSRTDDKVIRFKRAIGYYSATSKPMSFHPPHYLAARPGPFGMPGMVPPHVPPQMLNIPQTSLQAKPVAPQVPSPGGAPGQGPYPYSLSEPAPLTLDTSGKNLTEQNSYSNIPHEGKHTPLYERSSPINPAQSGSPNHVDSAYFPGSSTSSSSDNDEGSGGATNHISGNKIGWEKTGSHSEPQARGDPGDQTKAEGSSTASSGSQLAEGKGSQMGTVQPIPCLLSMPTRNHMDITTPPLPPVAPEVLRVAEHRHKKGLMYPYIFHVLTKGEIKIAVSIEDEANKDLPPAALLYRPVRQYVYGVLFSLAESRKKTERLAFRKNRLPPEFSPVIIKEWAAYKGKSPQTPELVEALAFREWTCPNLKRLWLGKAVEDKNRRMRAFLACMRSDTPAMLNPANVPTHLMVLCCVLRYMVQWPGARILRRQELDAFLAQALSPKLYEPDQLQELKIENLDPRGIQLSALFMSGVDMALFANDACGQPIPWEHCCPWMYFDGKLFQSKLLKASREKTPLIDLCDGQADQAAKVEKMRQSVLEGLSFSRQSHTLPFPPPPALPFYPASAYPRHFGPVPPSQGRGRGFAGVCGFGGPYGETVATGPYRAFRVAAASGHCGAFSGSDSSRTSKSQGGVQPIPSQGGKLEIAGTVVGHWAGSRRGRGGRGPFPLQVVSVGGPARGRPRGVISTPVIRTFGRGGRYYGRGYKNQAAIQGRPPYAASAEEVAKELKSKSGESKSSAMSSDGSLAENGVMAEEKPAPQMNGSTGDARAPSHSESALNNDSKTCNTNPHLNALSTDSACRREAALEAAVLNKEE
As for B1, the binding result is “binds”.

The values above are taken from publication doi:10.1101/2024.02.06.579055.
